Source: article doi:10.1101/2025.05.23.655772

The chains behind the UniProt entries cited, without tags or fusion partners. Where a name states a change or a piece, a line headed by the entry shows the natural chain unless it says otherwise.
UniProt P45974: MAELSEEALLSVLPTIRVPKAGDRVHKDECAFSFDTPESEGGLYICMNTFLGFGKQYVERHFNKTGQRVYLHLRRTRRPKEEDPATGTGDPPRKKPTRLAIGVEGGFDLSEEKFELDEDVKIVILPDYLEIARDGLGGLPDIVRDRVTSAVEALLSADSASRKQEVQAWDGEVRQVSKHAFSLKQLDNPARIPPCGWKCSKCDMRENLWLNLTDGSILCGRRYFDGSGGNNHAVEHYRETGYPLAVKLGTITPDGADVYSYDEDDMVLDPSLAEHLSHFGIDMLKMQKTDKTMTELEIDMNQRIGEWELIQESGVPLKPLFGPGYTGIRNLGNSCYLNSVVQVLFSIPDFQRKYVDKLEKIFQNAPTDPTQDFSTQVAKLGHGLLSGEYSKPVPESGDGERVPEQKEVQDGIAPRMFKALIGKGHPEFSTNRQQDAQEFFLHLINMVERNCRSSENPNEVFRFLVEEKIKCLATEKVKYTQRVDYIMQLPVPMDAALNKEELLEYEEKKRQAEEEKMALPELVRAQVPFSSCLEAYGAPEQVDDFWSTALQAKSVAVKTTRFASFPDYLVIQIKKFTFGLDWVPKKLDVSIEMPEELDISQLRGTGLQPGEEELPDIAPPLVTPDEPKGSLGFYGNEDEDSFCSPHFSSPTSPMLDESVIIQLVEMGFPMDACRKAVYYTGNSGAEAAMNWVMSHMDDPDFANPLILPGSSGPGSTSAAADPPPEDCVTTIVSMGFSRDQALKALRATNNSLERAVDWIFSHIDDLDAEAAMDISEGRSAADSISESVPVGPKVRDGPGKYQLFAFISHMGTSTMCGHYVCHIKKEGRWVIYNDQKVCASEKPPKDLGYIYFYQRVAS
UniProt Q6IQ49: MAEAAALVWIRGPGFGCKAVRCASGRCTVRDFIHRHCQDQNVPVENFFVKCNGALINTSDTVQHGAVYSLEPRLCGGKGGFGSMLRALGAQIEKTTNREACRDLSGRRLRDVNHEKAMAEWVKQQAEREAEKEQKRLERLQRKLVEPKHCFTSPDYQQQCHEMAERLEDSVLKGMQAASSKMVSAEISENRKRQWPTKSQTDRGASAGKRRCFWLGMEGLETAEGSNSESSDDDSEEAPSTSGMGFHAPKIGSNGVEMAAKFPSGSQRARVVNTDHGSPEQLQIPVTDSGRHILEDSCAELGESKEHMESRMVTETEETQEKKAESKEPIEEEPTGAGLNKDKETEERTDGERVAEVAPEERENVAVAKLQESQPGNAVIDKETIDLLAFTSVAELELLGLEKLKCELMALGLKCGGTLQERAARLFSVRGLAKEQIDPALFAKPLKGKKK

Biological target: catalytically inactive USP5 C335A (human) (UniProt P45974)
Assay: ITC

- binding: binds weakly
Substance: full-length SDE2, SDE2FL(1-451) (from UniProt Q6IQ49)

These are yes or no findings as the source states them, for the method shown. Binding calls can cover weak binding; strength is not graded here.
